In publication PMC12290687, “Phenotypic Screening of the MMV Global Health Priority Box Identifies Selective Compounds with Anti-Toxoplasma gondii Activity” (ACS Omega, 2025) one finds SI data, which are given here for eight compounds.

Some results are limits rather than exact numbers.

One data set has as its system T. gondii intracellular tachyzoites. Type of data set: cell-based, Toxoplasma gondii RH-2F1. The settings on record: ratio CC50 / EC50. The method, then:
Toxoplasma gondii RH-2F1 tachyzoites, which express β-galactosidase, were maintained in human foreskin fibroblasts (HFFs). HFFs were cultured in Dulbecco’s Modified Eagle Medium (DMEM) supplemented with 10% fetal bovine serum (FBS), 2 mM L-glutamine, and 40 μg/mL gentamicin (referred to as D10) and incubated at 37 °C in a 5% CO2 humidified atmosphere. For infection assays, confluent monolayers were maintained in DMEM with 2% FBS (D2) prior to parasite inoculation.
For in vitro assays in 96-well plates, HFFs were seeded at 5 × 10^3 cells/well in the D10 medium and incubated for 12–16 h to allow adherence. […] For antiparasitic assays, HFFs were infected with RH-2F1 tachyzoites at a multiplicity of infection (MOI) of 1:1 for 3 h.
Parasite proliferation was assessed by quantifying β-galactosidase activity, as previously described. Briefly, after the 72 h incubation, cells were lysed in 100 μL of lysis buffer (100 mM HEPES pH 7.5, 1 mM MgSO4, 0.1% Triton X-100, 5 mM DTT) for 15 min at room temperature. […] Following a 30 min incubation at 37 °C, absorbance was measured at 570 nm using a Varioskan LUX microplate reader (Thermo Scientific). Each assay included viability controls (untreated infected cells), solvent controls (1% DMSO), a positive control (1 μM pyrimethamine), and experimental blanks (no cells). All conditions were tested in two biological replicates in three independent experiments.
Compounds from the GHPB library were screened at a final concentration of 1 μM in infected HFF monolayers, using the β-galactosidase assay as a readout for parasite viability after 72 h.
Regarding `CCc1nc(N)nc(N)c1-c1ccc(Cl)cc1` [Pyrimethamine, reference compound], the SI is given as more than 131.

Still in this data set, the particulars now being: selectivity index = CC50 (HFF)/EC50 (T. gondii).
In turn, `O=C(Nc1ncccc1O)c1ccc(S(=O)(=O)NCCc2cccs2)cc1` [MMV1435700] displayed an SI of 59.
Same read-out and setting: in the case of `Cn1c(O)c(C(=O)Nc2ccc(Cl)c(Cl)c2)c(=O)n(C)c1=O` [MMV1634081] it was 59; in that of `O=C(Nc1ccc(Cl)c(C(F)(F)F)c1)Nc1ccc(Cl)c(C(F)(F)F)c1` [MMV027339], 11.
With `CN(C)C1CC(NC(=O)c2ccc(Nc3nccc(-c4ccc(Cl)c(C(F)(F)F)c4)n3)cc2)C1` (stereo not drawn) [MMV884814], the SI was 5.
The compound `O=C(Nc1ncccc1O)c1ccc(Cn2cccn2)cc1` [MMV1266067] came in with an SI of more than 68.
In turn, `O=C(Nc1ncccc1O)c1ccc(N2CCOCC2)nc1` [MMV1103183] showed an SI of more than 70.
Still for that read-out and setting: then `O=C(NC(=O)c1ccccc1Cl)Nc1ccc(OC(F)(F)F)cc1` [MMV689404, Triflumuron], with more than 103.

The data set is the same for the next values; noted with them: selectivity index = CC50 (HFF)/EC50 (T. gondii); listed as Triflumuron.
Consider `O=C(NC(=O)c1ccccc1Cl)Nc1ccc(OC(F)(F)F)cc1` [MMV689404, Triflumuron], for which the SI is listed as more than 100.
